Measurements published in patent US12478617B2 (JANSSEN BIOTECH, INC., priority 2021, dated 2025).

assay: general procedure: Fmoc solid-phase peptide synthesis; Rink Amide MBHA; HBTU/DIEA; PyAOP/DIEA for some couplings; Oxyma/DIC; details: whole synthesis, analytical RP-HPLC, acetate

With “Ac-[Pen]*-N-T-[W(7-Me)]-[Lys(Ac)]-[Pen]*-Phe[4-(2-aminoethoxy)]-[2-Nal]-[THP]-E-N-[3-Pal]-Sarc-NH2 (*Pen-Pen form disulfide bond)” the “final HPLC purity” value was >95%.

assay: general procedure: Fmoc solid-phase peptide synthesis; Rink Amide MBHA resin (100-200 mesh, 0.57 or […]); pre-loaded Wang resin for C-terminal acids; Rink-amide AM res; HBTU/DIEA; PyAOP/DIEA for some couplings; Oxyma/DIC; details: oxidative folding step, TFA salt, counterion exchange to acetate

Point of comparison: “MeCO-r-Pen*-N-T-7MeW-K(Ac)-Pen*-AEF-2Nal-THP—K(Ac)-N— 3Pva-N(PEG2PEG2gEC180H)Glv-CONH2”, oxidative folding yield 19.6%. Against it:
- MeCO-k(PEG2PEG2gEC180H)-Pen*-N-T-7MeW-K(Ac)-Pen*-AEF-2Nal-THP-K(Ac)-N-3Pva-N(4AmBenzyl)Gly-CONH2 — higher, 26.8%
- MeCO-r-Pen*-N-T-7MeW-K(Ac)-Pen*-AEF(PEG2PEG2gEC180H)-2Nal-THP—K(Ac)-N-3Pva-Sar-CONH2 — lower, 10%
- HOC18gEPEG2PEG2-r-Pen*-N-T-7MeW-K(Ac)-Pen*-AEF-2Nal-THP-K(PEG2PEG2gEC180H)-N-3Pya-Sar-CONH2 — lower, 11.3%
- MeCO-k(PEG2PEG22EmXOH)-Pen*-N-T-7MeW-K(Ac)-Pen*-AEF-2Nal-THP-K(PEG2PEG2gEmXOH)-N-3Pva-Sar-CONH2 — lower, 13%
- MeCO-k(PEG2PEG2gEC180H)-Pen*-N-T-7MeW-K(Ac)-Pen*-AEF-2Nal-THP-K(Ac)-N-3Pva-Sar-CONH2 — higher, 28%
- MeCO-Pen*-N-T-7MeW-K(Ac)-Pen*-AEF-2Nal-THP-K(PEG2PEG2gEC180H)-N-3Pva-Sar-CONH2 — higher, 24%
- MeCO-Pen*-N-T-7MeW-K(Ac)-Pen*-AEF-2Nal-THP—K(Ac)-N— 3Pva-Sar-PEG2-PEG2-eK(C160H)-COOH — lower, 7%
- MeCO-r-Pen*-N-T-7MeW-K(Ac)-Pen*-AEF-2Nal-THP-E-N-3Pya-NMeK(PEG2PEG2gEC180H)-CONH2 — lower, 11%
- MeCO-k(PEG2PEG22EC160H)-Pen*-N-T-7MeW-K(Ac)-Pen*-AEF-2Nal-THP-K(gEC16)-N-3Pva-Sar-CONH2 — lower, 13%
- HOC18gEPEG2PEG2-r-Pen*-N-T-7MeW-K(Ac)-Pen*-AEF-2Nal-THP—K(Ac)-N-3Pva-Sar-CONH2 — higher, 22%
- MeCO-k(PEG2PEG2SP6gEC180H)-Pen*-N-T-7MeW-K(Ac)-Pen*-AEF-2Nal-THP—K(Ac)-N-3Pva-Sar-CONH2 — higher, 35%

With “MeCO-k(PEG2PEG2gE(c)C180H)-Pen*-N-T-7MeW-K(Ac)-Pen*-AEF-2Nal-THP—K(Ac)-N-3Pva-Sar-CONH2” the oxidative folding yield was 20% yield.

same assay, conditions: oxidative folding step, from Intermediate 2-1, TFA salt, counterion exchange to acetate

“MeCO-r-Pen*-N-T-7MeW-K(Ac)-Pen*-AEF-2Nal-THP-E-N-3Pya-Sar-K(PEG2PEG2gEC18OH)-CONH2” gave an oxidative folding yield of 5% yield.
